Test results as given in patent publication US10736941B2, “Cell membrane-permeating peptide” (NATIONAL UNIVERSITY CORPORATION KUMAMOTO UNIVERSITY, priority 2015, dated 2020).
The amount applied is not stated for every result.

Tested on: Caco-2 cells
Test: Screening of phage library (C7C, 7 random amino acids) for peptides permeating Caco-2 cells
Format: cell-based, human
Conditions: appearance frequency of the 7-amino-acid sequence in three experiments of Caco-2 permeation selection

| Substance | Appearance Frequency |
| --- | --- |
| HSNDPRN (cyclic; identified using phage display) | 3 |
| TVSRPAF (cyclic; identified using phage display) | 3 |
| DNPGNET (cyclic peptide; identified using phage display) | 3 |
| PFMSVAN (cyclic; identified using phage display) | 2 |
